Measurements published in PubChem BioAssay AID493014 (National Center for Advancing Translational Sciences (NCATS), 2011).
The other results are listed elsewhere or left out. These are further read-outs of the screen, such as a control signal, another cell line or another target. No call is given for them. Compounds called inactive in the main read-out are mostly missing here. The note in brackets gives the kind of curve behind each potency; many fits are weak.

Assay: qHTS Assay to Find Inhibitors of Chronic Active B-Cell Receptor Signaling
Details: ABC-DLBCL IkBa-CBG/CBR reporter, luminescence ratio (green luciferase fused to IkBa over red control in TMD8 lymphoma cells), 4 h
In short: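 Concentration-response series (up to 46 uM) were applied to TMD8 dual-reporter cells for 4 h at 37C with doxycycline. Green/red ratio, after filter-overlap correction, defined %Activity; red signal alone was normalised to basal cells and zero luminescence.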

[1] = measured here: CBR red luminescence, cell number
[2] = measured here: IkBa-CBG green luminescence

Row | SMILES | AC50 [1] | AC50 [2]
1 | O=C(Nc1ccccc1F)c1ccc(CSc2ncccn2)cc1 | 35.5 µM [falling, single point] | –
2 | CCOC(=O)N1CCN(C(=O)c2ccc([N+](=O)[O-])cc2Cl)CC1 | 22.4 µM [rising, single point] | –
3 | N=C1/C(=C\c2coc3ccccc3c2=O)C(=O)N=C2SC=CN12 | 6.31 µM [falling, full curve] | –
4 | Cc1cc2[nH]c(=O)c(=O)[nH]c2cc1S(=O)(=O)Nc1cccc(F)c1 | 11.2 µM [rising, partial curve, poor fit] | –
5 | CCCN(CCC)C(=S)NC(=O)c1ccc(-c2ccccc2)cc1 | 16.4 µM [falling, single point] | –
6 | COC(=O)C1=C(C)NC(C)=C(C(=O)OC)C1c1ccco1 | 0.562 µM [rising, full curve, poor fit] | –
7 | CCCCC(=O)N/N=C(\C)CC(=O)Nc1cc(Cl)ccc1OC | 35.5 µM [falling, single point] | –
8 | Oc1ccc(C2=NNC(=NCc3ccc4c(c3)OCO4)SC2)c(O)c1 | 4.11 µM [falling, full curve] | –
9 | CC(C)CC(=O)Nc1ccc(Oc2ccc(NC(=O)CC(C)C)cc2)cc1 | 5.17 µM [rising, partial curve] | –
10 | O=C(Nc1ccccn1)c1cc2ccccc2cc1O | 2.82 µM [falling, full curve] | –
11 | O=C1c2ccccc2C(=O)C1C1=Nc2ccccc2NC(c2ccccc2)C1 (configuration not stated) | 0.501 µM [rising, full curve, poor fit] | –
12 | COc1cc(S(=O)(=O)n2nnc3ccccc32)c(OC)cc1Cl | 29.1 µM [rising, single point] | –
13 | C/C(N)=C(/C#N)C(=O)COC(=O)c1ccc(OCC2CCCO2)cc1 (configuration not stated) | 3.98 µM [rising, single point] | –
14 | CCOC(=O)CSc1nnc(-c2ccccc2OC)o1 | 18.4 µM [rising, single point] | –
15 | Cc1nn(Cc2ccccc2)c2c1C(c1ccc(Cl)cc1)C(C#N)=C(N)O2 (configuration not stated) | – | 29.1 µM [falling, single point]
16 | N#CC1=C(N)C2=CCCC[C@H]2[C@H](c2ccc(Br)cc2)C1(C#N)C#N | 29.1 µM [falling, single point] | –
17 | CCNC(=S)NCc1ccc2[nH]c(C)cc2c1 | 23.1 µM [rising, partial curve, poor fit] | –
18 | O=C(COC(=O)CCCOc1ccc(Cl)cc1Cl)NCc1ccccc1 | 20.6 µM [rising, partial curve, poor fit] | –
19 | CC(=O)NC1(c2ccccc2)CCN(Cc2nnnn2C(C)(C)C)CC1 | 0.0259 µM [rising, partial curve, poor fit] | –
20 | Nc1c(Cl)cc(Cl)cc1C(=O)OCC(=O)N1CCOCC1 | 6.31 µM [falling, partial curve] | –
21 | O=C(CNc1ccc(F)cc1)c1ccccc1 | 15.8 µM [falling, partial curve, poor fit] | –
22 | CC(C)c1ccc2nc(N)sc2c1 | 4.47 µM [rising, full curve, poor fit] | –

Row | SMILES | AC50 [1] | AC50 [2]
23 | Fc1cccc(-c2nnn3c2nc(Cl)c2ccccc23)c1 | 0.355 µM [falling, full curve] | –
24 | COC(=O)c1c(NC(=O)CN2CCN(c3ccccc3OC)CC2)c2c(C)cccc2n1C | 11.2 µM [rising, partial curve, poor fit] | –
25 | Cc1nc(NC(=O)c2ccc3c(c2)OCO3)ccc1Br | 35.5 µM [falling, partial curve, poor fit] | –
26 | CCn1c(=N)n(CCOc2ccc(Br)cc2)c2ccccc21 | 7.94 µM [falling, partial curve, poor fit] | –
27 | O=C(COC(=O)c1cc(S(=O)(=O)N2CCOCC2)ccc1F)NC1CC1 | 0.259 µM [falling, partial curve, poor fit] | –
28 | COc1cc(OC)c(C(=O)Nc2ccc3ccccc3c2)cc1OC | 1.78 µM [rising, full curve] | –
29 | CN(CC(=O)Nc1ccc(Cl)cc1)c1ccc(S(=O)(=O)N2CCCCC2)cc1[N+](=O)[O-] | 9.2 µM [falling, partial curve, poor fit] | –
30 | O=C1CN(Cc2ccccc2)C(=NCc2ccco2)S1 | 14.6 µM [rising, partial curve] | –
31 | O=C(NCCc1ccccc1)c1ccc(Cl)nc1 | 0.231 µM [rising, partial curve, poor fit] | –
32 | Cc1ccc(CN(Cc2ccco2)C(=S)NCC(=O)O)cc1 | 29.1 µM [rising, partial curve, poor fit] | –
33 | COc1ccc(OCC(=O)Nc2c3c(nn2-c2ccccc2)CS(=O)(=O)C3)cc1 | 11.2 µM [rising, partial curve, poor fit] | –
34 | COc1cc(OC)cc(C(=O)NC2=NCCS2)c1 | 0.0231 µM [falling, full curve, poor fit] | –
35 | Cc1ccc(C2=NC(=O)/C(=C/c3cc(O)c(O)c(Br)c3)S2)cc1 | 17.8 µM [rising, single point] | –
36 | CCCc1oc2c(c(=O)c1CC)C(=O)CC(C)(C)C2 | 20.6 µM [rising, single point] | –
37 | Nc1c(S(=O)(=O)c2cccs2)c2nc3ccccc3nc2n1CCc1ccccc1 | 10 µM [falling, partial curve] | –
38 | COc1ccc(C)c2sc(NC(=O)c3cccc(N4C(=O)CCC4=O)c3)nc12 | 0.562 µM [falling, full curve, poor fit] | –
39 | CCN(CC)c1ccc(CNc2ccc3c(c2)ncn3C(C)(C)C)cc1 | 35.5 µM [rising, partial curve, poor fit] | –
40 | COC(=O)c1cccc(Nc2ccc([N+](=O)[O-])cn2)c1 | 20 µM [rising, single point] | –
41 | CCn1c2ccccc2c2cc(NC(=O)CSc3nnc(-c4ccc(OC)cc4)n3N)ccc21 | 12.6 µM [rising, partial curve, poor fit] | –
42 | CCCNC(=O)NC(=O)COC(=O)/C=C/c1cc(Br)ccc1F | 1.12 µM [falling, partial curve, poor fit] | –
43 | CC(=O)N1C(C(=O)O)CSC1c1ccc(C)cc1 (configuration not stated) | 6.51 µM [falling, single point] | –
44 | COC(=O)C1CCCCN1C(=O)c1cc(COc2cccc3cnccc23)on1 (configuration not stated) | 20 µM [falling, partial curve, poor fit] | –

Rewritten in markdown: 20 of the compounds above.

| Row | SMILES | AC50 [1] | AC50 [2] |
| --- | --- | --- | --- |
| 22 | CC(C)c1ccc2nc(N)sc2c1 | 4.47 µM [rising, full curve, poor fit] | – |
| 23 | Fc1cccc(-c2nnn3c2nc(Cl)c2ccccc23)c1 | 0.355 µM [falling, full curve] | – |
| 24 | COC(=O)c1c(NC(=O)CN2CCN(c3ccccc3OC)CC2)c2c(C)cccc2n1C | 11.2 µM [rising, partial curve, poor fit] | – |
| 26 | CCn1c(=N)n(CCOc2ccc(Br)cc2)c2ccccc21 | 7.94 µM [falling, partial curve, poor fit] | – |
| 27 | O=C(COC(=O)c1cc(S(=O)(=O)N2CCOCC2)ccc1F)NC1CC1 | 0.259 µM [falling, partial curve, poor fit] | – |
| 28 | COc1cc(OC)c(C(=O)Nc2ccc3ccccc3c2)cc1OC | 1.78 µM [rising, full curve] | – |
| 29 | CN(CC(=O)Nc1ccc(Cl)cc1)c1ccc(S(=O)(=O)N2CCCCC2)cc1[N+](=O)[O-] | 9.2 µM [falling, partial curve, poor fit] | – |
| 30 | O=C1CN(Cc2ccccc2)C(=NCc2ccco2)S1 | 14.6 µM [rising, partial curve] | – |
| 31 | O=C(NCCc1ccccc1)c1ccc(Cl)nc1 | 0.231 µM [rising, partial curve, poor fit] | – |
| 33 | COc1ccc(OCC(=O)Nc2c3c(nn2-c2ccccc2)CS(=O)(=O)C3)cc1 | 11.2 µM [rising, partial curve, poor fit] | – |
| 34 | COc1cc(OC)cc(C(=O)NC2=NCCS2)c1 | 0.0231 µM [falling, full curve, poor fit] | – |
| 35 | Cc1ccc(C2=NC(=O)/C(=C/c3cc(O)c(O)c(Br)c3)S2)cc1 | 17.8 µM [rising, single point] | – |
| 36 | CCCc1oc2c(c(=O)c1CC)C(=O)CC(C)(C)C2 | 20.6 µM [rising, single point] | – |
| 38 | COc1ccc(C)c2sc(NC(=O)c3cccc(N4C(=O)CCC4=O)c3)nc12 | 0.562 µM [falling, full curve, poor fit] | – |
| 39 | CCN(CC)c1ccc(CNc2ccc3c(c2)ncn3C(C)(C)C)cc1 | 35.5 µM [rising, partial curve, poor fit] | – |
| 40 | COC(=O)c1cccc(Nc2ccc([N+](=O)[O-])cn2)c1 | 20 µM [rising, single point] | – |
| 41 | CCn1c2ccccc2c2cc(NC(=O)CSc3nnc(-c4ccc(OC)cc4)n3N)ccc21 | 12.6 µM [rising, partial curve, poor fit] | – |
| 42 | CCCNC(=O)NC(=O)COC(=O)/C=C/c1cc(Br)ccc1F | 1.12 µM [falling, partial curve, poor fit] | – |
| 43 | CC(=O)N1C(C(=O)O)CSC1c1ccc(C)cc1 (configuration not stated) | 6.51 µM [falling, single point] | – |
| 44 | COC(=O)C1CCCCN1C(=O)c1cc(COc2cccc3cnccc23)on1 (configuration not stated) | 20 µM [falling, partial curve, poor fit] | – |

Following part

Row | SMILES | AC50 [1] | AC50 [2]
45 | COc1ccc(N2CCN(CC(=O)Nc3sccc3C#N)CC2)cc1 | 20.6 µM [rising, partial curve, poor fit] | –
46 | Cc1cccc2cc(C#N)c(NCc3ccccc3)nc12 | 35.5 µM [falling, single point] | –
47 | COc1ccc(Br)c(C(=O)NC2CCCC2)c1 | 0.0891 µM [rising, full curve, poor fit] | –
48 | COc1ccc(CCNCC(O)Cn2c3ccccc3c3ccccc32)cc1OC (configuration not stated) | 22.4 µM [falling, single point] | –
49 | C=CCn1c(N)c(C(=O)OC(C)(C)C)c2nc3ccccc3nc21 | 29.1 µM [falling, single point] | –
50 | COc1ccccc1Nc1nc(NCCCN(C)C)nc(N)c1[N+](=O)[O-] | 15.8 µM [falling, single point] | –
51 | N#CCCN(C(=O)Nc1ccc(Cl)c(Cl)c1)c1ccccc1 | 10.3 µM [rising, partial curve, poor fit] | –
52 | Cc1ccccc1-n1c(SCC(=O)c2c(N)n(C)c(=O)n(C)c2=O)nnc1-c1cccnc1 | 0.146 µM [falling, full curve, poor fit] | –
53 | COc1ccc(N=c2oc3cc(O)ccc3cc2C(=O)Nc2ccccn2)cc1OC | 4.47 µM [falling, partial curve, poor fit] | –
54 | Cc1cc(C(F)(F)F)nc(-n2cc(-c3ccccc3)nn2)n1 | 2.82 µM [falling, partial curve, poor fit] | –
55 | Cc1ccc(OCCn2ncc3ccccc3c2=O)c(C)c1 | 3.16 µM [rising, full curve] | –
56 | COc1ccc(Cl)cc1NC(=O)CN(C)C(=O)COc1ccccc1F | 31.6 µM [falling, single point] | –
57 | COc1ccc(C(=O)NC(=S)Nc2ccc(CN3CCOCC3)cc2)cc1Cl | 10 µM [falling, partial curve] | –
58 | Oc1ccccc1CNc1cccc2cccnc12 | 11.2 µM [falling, partial curve, poor fit] | –
59 | CSc1nnc(-c2ccc([N+](=O)[O-])cc2)o1 | 3.55 µM [rising, partial curve, poor fit] | –
60 | CCCCS(=O)(=O)/C=C\C=C/S(=O)(=O)CCCC | 4.11 µM [falling, full curve, poor fit] | 5.8 µM [rising, full curve, poor fit]
61 | O=C(c1ccc(F)cc1)N1C2CCC1CC(O)(c1ccc(F)cc1)C2 (configuration not stated) | 35.5 µM [falling, single point] | –
62 | CCOc1ccc2nc(SCC(=O)Nc3nonc3C)[nH]c2c1 | 5.01 µM [rising, full curve, poor fit] | –
63 | NC(=O)COc1c(-c2ccco2)oc2ccccc2c1=O | 10 µM [falling, partial curve, poor fit] | –
64 | CC(NCC(=O)Nc1ccccc1C(=O)NC1CC1)c1ccccc1Cl (configuration not stated) | 32.6 µM [rising, single point] | –
65 | CCOC(=O)c1ccc(NC(=O)CSc2ncccn2)cc1 | 0.92 µM [falling, full curve, poor fit] | –
66 | COc1cc(C(=S)NC2CCCCC2)ccc1O | 0.0164 µM [rising, full curve, poor fit] | –
